Assay [1] concerns the target SMC K37I (Walker A mutant), purified (Bacillus subtilis) (UniProt P51834). Put plainly: atomic force microscopy; SMC adsorbed on mica at about 0.1 ug/ul in 50 Hepes pH 8.0, 300 NaCl, tapping mode in solution; SMC dimers to rosette-like higher-order structures; both purified.
Assay [2] deals with SMC S1090R (C-motif mutant), purified (Bacillus subtilis) (UniProt P51834). The assay is described as above.
The target of assay [3] is SMC protein (Bacillus subtilis), His-tagged, purified (Bacillus subtilis) (UniProt P51834). Nature of the assay: atomic force microscopy; diluted samples of SMC; SMC dimers to rosette-like higher-order structures; both purified.
Assay [4] deals with T1, ScpB (Bacillus subtilis), His-tagged, purified (Bacillus subtilis) (UniProt P35155).
T1 sequence: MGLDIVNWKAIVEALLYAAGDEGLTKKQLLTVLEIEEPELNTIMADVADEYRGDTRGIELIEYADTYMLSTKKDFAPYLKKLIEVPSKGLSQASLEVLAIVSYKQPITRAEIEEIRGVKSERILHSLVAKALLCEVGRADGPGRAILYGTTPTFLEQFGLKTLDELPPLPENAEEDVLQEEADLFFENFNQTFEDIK
Nature of the assay: native gel or EMSA; native gel electrophoresis of freshly purified ScpA incubated with ScpB; data not shown; both purified. Background: In EMSA bound probe runs differently from free probe, usually more slowly.

For assay [5], the target named is T1, ScpB (Bacillus subtilis), His-tagged, purified (Bacillus subtilis). Put plainly: sucrose gradient centrifugation; 5 to 20% sucrose gradient, 165,000 x g, 15 h; 1:1 mixture of ScpA and ScpB; data not shown; both purified.
For assay [6] the target is unchanged. Put plainly: SEC; analytical gel filtration, Superdex 200 10/300 GL; 50 mM HEPES, 300 mM NaCl, pH 8.0; proteins incubated 30 min; ScpA and ScpB alone or mixed (1:2.5, 1:0.83, 1:10), fractions on SDS-PAGE; both purified. On the technique in general: SEC sorts molecules by how far they enter the pores of the column.

Residue numbers refer to the chain shown, from its start. Names may count otherwise. Results are given in words; binding and its absence hold for the method and conditions named. Some binding calls cover weakened binding; strength is not graded here. For part of these data: Where a sequence is shown, tags or fusion partners need not be part of it.

B1: SMC K37I (Walker A mutant), purified (protein, UniProt P51834 1-1186)
chain: MFLKRLDVIGFKSFAERISVDFVKGVTAVVGPNGSGISNITDAIRWVLGEQSARSLRGGKMEDIIFAGSDSRKRLNLAEVTLTLDNDDHFLPIDFHEVSVTRRVYRSGESEFLINNQPCRLKDIIDLFMDSGLGKEAFSIISQGKVEEILSSKAEDRRSIFEEAAGVLKYKTRKKKAENKLFETQDNLNRVEDILHELEGQVEPLKIQASIAKDYLEKKKELEHVEIALTAYDIEELHGKWSTLKEKVQMAKEEELAESSAISAKEAKIEDTRDKIQALDESVDELQQVLLVTSEELEKLEGRKEVLKERKKNAVQNQEQLEEAIVQFQQKETVLKEELSKQEAVFETLQAEVKQLRAQVKEKQQALSLHNENVEEKIEQLKSDYFELLNSQASIRNELQLLDDQMSQSAVTLQRLADNNEKHLQERHDISARKAACETEFARIEQEIHSQVGAYRDMQTKYEQKKRQYEKNESALYQAYQYVQQARSKKDMLETMQGDFSGFYQGVKEVLKAKERLGGIRGAVLELISTEQKYETAIEIALGASAQHVVTDDEQSARKAIQYLKQNSFGRATFLPLSVIRDRQLQSRDAETAARHSSFLGVASELVTFDPAYRSVIQNLLGTVLITEDLKGANELAKLLGHRYRIVTLEGDVVNPGGSMTGGAVKKKNNSLLGRSRELEDVTKRLAEMEEKTALLEQEVKTLKHSIQDMEKKLADLRETGEGLRLKQQDVKGQLYELQVAEKNINTHLELYDQEKSALSESDEERKVRKRKLEEELSAVSEKMKQLEEDIDRLTKQKQTQSSTKESLSNELTELKIAAAKKEQACKGEEDNLARLKKELTETELALKEAKEDLSFLTSEMSSSTSGEEKLEEAAKHKLNDKTKTIELIALRRDQRIKLQHGLDTYERELKEMKRLYKQKTTLLKDEEVKLGRMEVELDNLLQYLREEYSLSFEGAKEKYQLETDPEEARKRVKLIKLAIEELGTVNLGSIDEFERVNERYKFLSEQKEDLTEAKNTLFQVIEEMDEEMTKRFNDTFVQIRSHFDQVFRSLFGGGRAELRLTDPNDLLHSGVEIIAQPPGKKLQNLNLLSGGERALTAIALLFSILKVRPVPFCVLDEVEAALDEANVFRFAQYLKKYSSDTQFIVITHRKGTMEEADVLYGVTMQESGVSKVISVKLEETKEFVQ
As to B1, the binding result in assay [1] is recorded as “binds weakly”.

B2: SMC S1090R (C-motif mutant), purified (protein, UniProt P51834 1-1186)
chain: B1 chain with I37K, S1090R
In the case of B2, in assay [2], the binding result is “no binding”.

B3: SMC protein (Bacillus subtilis), His-tagged, purified (natural protein, UniProt P51834 1-1186, looked up)
chain: B1 chain with I37K
notes: SMC, Bacillus subtilis; monomeric size 135 kDa as printed; also called wild-type SMC; wild type SMC
For the molecule B3, the binding result in assay [3] is “no binding (condition: diluted samples)”.

B4: ScpA (Bacillus subtilis), His-tagged, purified (protein, UniProt P35154 1-251)
chain: MEEYQVKIDTFEGPLDLLLHLINRLEIDIYDIPVAKITEQYLLYVHTMRVLELDIASEYLVMAATLLSIKSRMLLPKQEEELFEDELLEEEDPREELIEKLIEYRKYKDAAKDLKEREEERQKSFTKPPSDLSEYAKEVKQSEQKLSVTVYDMIGAFQKVLKRKKINRPMETTITRQDIPIEARMNEIVHSLKSRGTRINFMDLFPYEQKEHLVVTFLAVLELMKNQLVLIEQEHNFSDIYITGSESIHGA
B4: the binding result in assay [4], in assay [5] and in assay [6] was “binds” each time.

The values are drawn from publication PMC1188057, “Dynamic assembly, localization and proteolysis of the Bacillus subtilis SMC complex” (BMC Cell Biology, 2005).
